Results are given in words; binding and its absence hold for the method and conditions named. In cells and extracts the contact can be indirect. Some results given as binding are weak or reduced against the parent protein; the word gives no strength.

By UniProt entry, the sequences of proteins in these tests, tags left out. Where a name states a change or a piece, a line headed by the entry shows the natural chain unless it says otherwise.
UniProt P03372: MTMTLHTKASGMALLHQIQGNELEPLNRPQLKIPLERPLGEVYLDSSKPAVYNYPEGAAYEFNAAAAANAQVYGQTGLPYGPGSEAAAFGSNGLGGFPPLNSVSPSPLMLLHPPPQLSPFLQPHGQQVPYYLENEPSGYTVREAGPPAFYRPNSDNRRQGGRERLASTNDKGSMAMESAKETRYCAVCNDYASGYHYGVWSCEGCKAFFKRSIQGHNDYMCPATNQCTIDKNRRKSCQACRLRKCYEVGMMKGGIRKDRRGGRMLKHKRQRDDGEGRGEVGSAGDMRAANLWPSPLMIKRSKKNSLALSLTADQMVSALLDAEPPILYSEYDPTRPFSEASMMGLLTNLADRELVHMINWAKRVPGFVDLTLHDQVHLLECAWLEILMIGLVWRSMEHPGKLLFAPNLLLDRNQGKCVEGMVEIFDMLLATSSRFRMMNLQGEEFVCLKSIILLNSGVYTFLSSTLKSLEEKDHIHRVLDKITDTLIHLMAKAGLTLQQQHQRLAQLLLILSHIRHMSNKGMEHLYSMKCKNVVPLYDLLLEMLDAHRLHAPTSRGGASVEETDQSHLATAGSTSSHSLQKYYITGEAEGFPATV
UniProt P15941: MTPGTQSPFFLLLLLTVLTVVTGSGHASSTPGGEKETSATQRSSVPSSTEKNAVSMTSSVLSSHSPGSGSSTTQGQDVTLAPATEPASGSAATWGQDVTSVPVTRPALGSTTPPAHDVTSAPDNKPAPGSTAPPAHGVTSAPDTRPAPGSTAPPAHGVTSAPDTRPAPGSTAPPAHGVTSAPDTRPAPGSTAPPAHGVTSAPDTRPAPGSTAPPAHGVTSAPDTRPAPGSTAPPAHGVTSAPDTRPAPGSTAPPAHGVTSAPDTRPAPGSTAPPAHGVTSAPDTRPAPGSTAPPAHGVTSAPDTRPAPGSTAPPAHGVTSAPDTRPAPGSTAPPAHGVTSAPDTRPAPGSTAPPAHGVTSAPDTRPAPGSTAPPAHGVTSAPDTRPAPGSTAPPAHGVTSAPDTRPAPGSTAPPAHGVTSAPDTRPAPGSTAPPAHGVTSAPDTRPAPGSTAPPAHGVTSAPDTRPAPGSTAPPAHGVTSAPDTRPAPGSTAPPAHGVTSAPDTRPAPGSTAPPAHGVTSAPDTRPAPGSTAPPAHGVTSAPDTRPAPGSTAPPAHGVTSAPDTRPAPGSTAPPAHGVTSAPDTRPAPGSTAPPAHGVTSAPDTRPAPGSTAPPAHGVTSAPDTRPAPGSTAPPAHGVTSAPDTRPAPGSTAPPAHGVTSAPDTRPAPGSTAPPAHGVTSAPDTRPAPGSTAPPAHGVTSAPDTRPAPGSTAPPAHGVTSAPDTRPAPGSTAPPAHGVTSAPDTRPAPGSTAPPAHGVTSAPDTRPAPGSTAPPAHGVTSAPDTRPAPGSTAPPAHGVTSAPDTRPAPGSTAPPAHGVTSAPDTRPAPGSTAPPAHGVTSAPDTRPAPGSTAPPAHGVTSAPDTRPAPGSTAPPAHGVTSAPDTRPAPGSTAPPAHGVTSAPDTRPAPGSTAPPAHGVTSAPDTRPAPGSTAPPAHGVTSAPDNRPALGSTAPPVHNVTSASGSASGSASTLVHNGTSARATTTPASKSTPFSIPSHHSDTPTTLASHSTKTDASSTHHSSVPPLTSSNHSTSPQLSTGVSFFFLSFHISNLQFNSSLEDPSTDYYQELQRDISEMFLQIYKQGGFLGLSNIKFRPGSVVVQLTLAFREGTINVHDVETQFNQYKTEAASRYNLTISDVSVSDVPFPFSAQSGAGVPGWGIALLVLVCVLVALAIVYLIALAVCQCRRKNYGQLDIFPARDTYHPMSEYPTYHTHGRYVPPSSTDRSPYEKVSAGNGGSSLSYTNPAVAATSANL

In US20080311575A1, “Modulation of Muci-Dependent Anti-Estrogen Resistance” (priority 2005, published 2008) one finds binding data, which are given here for 1 substance.

The assay addresses estrogen receptor α (ERα), expressed in cells (human) (UniProt P03372). The assay can be described thus: coimmunoprecipitation from COS-1 cells coexpressing Myc-MUC1-CD and ERα (anti-ERα IP with anti-MUC1-CD blot; reciprocal anti-Myc IP with anti-ERα blot); E2 increased binding.

Take “Myc-tagged MUC1 cytoplasmic domain (Myc-MUC1-CD) (from UniProt P15941 1184-1255)”: the binding result was “binds”.
